The other results are listed elsewhere or left out. The main result of the screen is listed elsewhere. These columns were measured beside it and carry no call. Compounds called inactive in the main read-out are mostly missing here. The note in brackets gives the kind of curve behind each potency; many fits are weak.
Test: qHTS Assay to Find Inhibitors of Chronic Active B-Cell Receptor Signaling
Settings: ABC-DLBCL IkBa-CBG/CBR reporter, luminescence ratio (green luciferase fused to IkBa over red control in TMD8 lymphoma cells), 4 h
How it was run: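 TMD8 human ABC-DLBCL cells with doxycycline-inducible IκBα–green luciferase fusion and unfused red luciferase, in 0.5% FBS medium; compounds up to 46 uM, 4 h at 37C. Green/red luminescence ratio, filter-overlap corrected, fitted to concentration-response curves.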

[1] = measured here: CBR red luminescence, cell number
[2] = measured here: IkBa-CBG green luminescence

Cc1ccc(Nc2cc(C)nn2-c2nc(C)cc(=O)[nH]2)cc1
AC50 [1]: 5.62 µM [rising, single point] | AC50 [2]: 3.55 µM [falling, single point]

Nc1cc(C2CCCC2)nn1-c1ccccc1
AC50 [1]: 11.2 µM [falling, single point]

CCOc1ccc(NC(=O)C/C(C)=N/NC(=O)c2cnccn2)cc1
AC50 [1]: 5.62 µM [falling, partial curve, poor fit]

COc1ccc(/C=C2/N=C(SCC(=O)Nc3cc(C)on3)N(c3ccccc3)C2=O)cc1
AC50 [1]: 3.66 µM [rising, full curve, poor fit]

Cc1cc(OCC(=O)NC(C)(C)C)ccc1Cl
AC50 [1]: 6.51 µM [rising, full curve, poor fit]

Cc1ccc(CN2CCN(C(=O)c3cccc4ccccc34)CC2)cc1
AC50 [1]: 22.4 µM [falling, single point]

COc1ccc2nc(Nc3sc4c(c3C(N)=O)CCCC4)sc2c1
AC50 [1]: 29.1 µM [falling, single point]

CN(C)C(=O)c1ccc(-c2cc(C(F)(F)F)nn2C)s1
AC50 [1]: 17.8 µM [rising, partial curve, poor fit]

CCc1ccc(NC(=O)c2n[nH]c(=O)c3ccccc23)cc1
AC50 [1]: 1 µM [rising, full curve]

CC(C)C(=O)Nc1nnc(SCC(=O)NCc2ccc3c(c2)OCO3)s1
AC50 [1]: 12.6 µM [rising, partial curve, poor fit]

Cc1cccc([C@@H](NC(=O)OC(C)(C)C)C(=O)OC(C)(C)C)c1
AC50 [1]: 7.31 µM [rising, partial curve, poor fit]

CC(/C=C/c1ccccc1)=N\NC(N)=S
AC50 [1]: 3.16 µM [falling, single point] | AC50 [2]: 3.98 µM [falling, full curve]

COc1ccccc1N1CCN(c2nc(C)nc3c2oc2ccccc23)CC1
AC50 [1]: 20 µM [falling, partial curve, poor fit]

O=C(CCN1CCc2ccccc2C1)c1ccc2c(c1)OCCO2
AC50 [1]: 5.62 µM [falling, partial curve]

CN1CCN(S(=O)(=O)c2ccc(N3CCN(C(=O)c4ccccc4)CC3)nc2)CC1
AC50 [1]: 0.355 µM [falling, partial curve, poor fit]

Cc1ccc(OCC(O)CNCc2ccc(F)cc2)cc1 (stereo not drawn)
AC50 [1]: 3.16 µM [rising, full curve]

O=C(O)c1cc(N/N=C/c2ccc(OCc3ccccc3)cc2)ccc1Cl
AC50 [1]: 6.31 µM [falling, partial curve]

Oc1ccc(CCNc2c3ccccc3nc3ccccc23)cc1O
AC50 [1]: 7.94 µM [falling, partial curve]

CCOc1cc(/C=C/C(=O)O)ccc1OCc1ccccc1
AC50 [1]: 28.2 µM [falling, single point]

O=C1N/C(=C/c2cccs2)C(=O)N1Cc1ccc(Br)cc1
AC50 [1]: 3.16 µM [falling, partial curve, poor fit]

Cc1ccc(/C=N/Nc2ccnc3cc(Cl)ccc23)c(C)c1
AC50 [1]: 0.366 µM [rising, full curve]

CSc1cccc(NS(=O)(=O)c2ccc(F)cc2)c1
AC50 [1]: 3.26 µM [falling, partial curve, poor fit]

Cc1nn(CC(=O)NC2CCS(=O)(=O)C2)c(C)c1[N+](=O)[O-] (stereo not drawn)
AC50 [1]: 32.6 µM [rising, partial curve, poor fit]

COC(=O)c1ccc(N2C(=O)CC(NCc3ccccc3)C2=O)cc1 (stereo not drawn)
AC50 [1]: 23.1 µM [rising, single point]

CCOC(=O)Nc1nc2ccccc2s1
AC50 [1]: 0.0259 µM [rising, full curve, poor fit]

Cc1ccc(NC(=O)Cn2c(=O)oc3ccccc32)cc1
AC50 [1]: 1.26 µM [falling, partial curve, poor fit]

CC(C)N(Cc1nc(-c2ccccc2)no1)C(=O)C(C)(C)C
AC50 [1]: 0.731 µM [falling, partial curve, poor fit]

COc1ccccc1/C=N/NC(=O)c1ccc(NC(=O)c2cccc([N+](=O)[O-])c2)cc1
AC50 [1]: 35.5 µM [falling, partial curve, poor fit]

OCCCC1CCCN(Cc2cn[nH]c2-c2ccc(F)cc2F)C1 (stereo not drawn)
AC50 [1]: 1.26 µM [falling, partial curve, poor fit]

CCOc1cc(/C=C2/NC(=O)N(Cc3ccccc3F)C2=O)ccc1O
AC50 [2]: 23.1 µM [rising, partial curve, poor fit]

CCOC(=O)CNC(=O)c1ccccc1
AC50 [1]: 3.16 µM [falling, partial curve, poor fit]

O=C(CN1C(=O)NC2(CCCC2)C1=O)OCc1ccc(Cl)c(Cl)c1
AC50 [1]: 0.231 µM [rising, full curve, poor fit]

Cn1c(N)c(S(=O)(=O)c2ccc(Br)cc2)c2nc3ccccc3nc21
AC50 [1]: 5.01 µM [falling, full curve]

COc1ccccc1NC(=O)N(CCN(C)C)Cc1cc2cc(C)ccc2[nH]c1=O
AC50 [1]: 0.651 µM [falling, full curve, poor fit]

COc1cc(/C=C2/SC(=S)N(c3c(C)n(C)n(-c4ccccc4)c3=O)C2=O)ccc1O
AC50 [1]: 15.8 µM [rising, single point]

COc1ccccc1-c1nc(-c2cccc(C)c2)no1
AC50 [1]: 7.31 µM [falling, partial curve]

CC(=O)C(=Cc1cc(C)n(-c2ccccc2)c1C)C(C)=O
AC50 [1]: 17.8 µM [rising, partial curve, poor fit]

CS(=O)(=O)c1ccc2nc(NC(=O)C3COc4ccccc4O3)sc2c1 (stereo not drawn)
AC50 [1]: 0.224 µM [rising, full curve, poor fit]

C/C(=N/NC(=O)c1cccs1)c1ccco1
AC50 [1]: 18.4 µM [falling, single point]

O=C1C2CC=CCC2C(=O)N1CC1CCCO1 (stereo not drawn)
AC50 [1]: 25.9 µM [rising, single point]

CCOc1cc(C(=O)N/N=C/C2CC=CCC2)cc(OCC)c1OCC (stereo not drawn)
AC50 [1]: 16.4 µM [rising, partial curve] | AC50 [2]: 13 µM [falling, partial curve]

Cc1c(C(=O)Oc2cccc3cccnc23)oc2ccccc12
AC50 [1]: 35.5 µM [falling, single point] | AC50 [2]: 11.2 µM [falling, partial curve]

O=C(Nc1cccc(Cl)c1)c1cc(N=Nc2ccc([N+](=O)[O-])cc2Cl)ccc1O
AC50 [1]: 0.794 µM [rising, full curve, poor fit]

C=CC[C@@H](Cc1ccc(F)cc1)C(=O)OC[C@@H]1CCCN1C(=O)[C@H](CC=C)CC(=O)N(CCO)Cc1ccccc1
AC50 [1]: 20.6 µM [falling, single point]

Cc1ccc(Nc2nc(COC(=O)COc3ccc(C=O)cc3)cs2)cc1
AC50 [1]: 8.2 µM [rising, partial curve, poor fit]

COc1ccc(CNC(=O)CSc2nnc3c(n2)[nH]c2ccccc23)cc1
AC50 [1]: 35.5 µM [rising, partial curve, poor fit]

COc1ccc(/C=C/c2nc(-c3ccccc3O)n[nH]2)cc1OC
AC50 [1]: 7.31 µM [falling, partial curve, poor fit]

COC(=O)c1ccc(/C=C2/SC(=S)N(CCCC(=O)Nc3ccc(O)cc3)C2=O)cc1
AC50 [1]: 5.62 µM [falling, partial curve, poor fit]

O=C(NCCc1ccccc1)c1ccc2c(c1)OCCCO2
AC50 [1]: 2.82 µM [falling, full curve]

O=C(Cc1ccccc1)NCC(=O)N1CCc2ccccc2C1
AC50 [1]: 14.1 µM [falling, partial curve, poor fit]

O=C(Cc1ccc(Br)cc1)Nc1ccc(Cl)cc1
AC50 [1]: 5.01 µM [rising, partial curve]

O=C(O)CSc1ncnc2sc3c(c12)CCCC3
AC50 [1]: 14.1 µM [falling, partial curve]

CN=C(C)C1=C(O)C(C(=O)OC)C(C)(C)CC1=O (stereo not drawn)
AC50 [1]: 3.66 µM [rising, single point]

Cc1cc(=O)[nH]c2nnc(-c3ccc(Br)cc3)n12
AC50 [1]: 3.55 µM [falling, partial curve, poor fit]

O=C(CSc1nnc(-c2ccco2)o1)c1ccccc1Cl
AC50 [1]: 35.5 µM [falling, single point]

COc1ccccc1NC(=O)c1ccc2nsnc2c1
AC50 [1]: 6.31 µM [rising, single point]

CN(C)c1ccc(P(=O)(Nc2ccc([N+](=O)[O-])cc2)N2CCOCC2)c(NC(=O)c2cccs2)c1 (stereo not drawn)
AC50 [1]: 25.9 µM [rising, single point]

COc1ccccc1NC(=O)N(Cc1cccs1)Cc1cc2cc3c(cc2[nH]c1=O)OCO3
AC50 [1]: 7.31 µM [falling, partial curve, poor fit]

Cn1c(=O)c2c(nc(NCC3CCCO3)n2C)n(C)c1=O (stereo not drawn)
AC50 [1]: 23.1 µM [falling, single point]

CN(C)CCNC(=O)c1csc(Nc2cccc3ccccc23)n1
AC50 [1]: 6.31 µM [falling, partial curve, poor fit]

O=C(N=C1N=C2C=CC=CN2Cc2ccccc21)c1ccc(S(=O)(=O)N2CCCC2)cc1
AC50 [2]: 8.91 µM [rising, partial curve, poor fit]

CNC(=S)NNC(=O)c1cccn(Cc2ccc(Cl)cc2Cl)c1=O
AC50 [1]: 1.12 µM [rising, full curve]

Cc1ccc([N+](=O)[O-])cc1N=Nc1c(-c2ccc([N+](=O)[O-])cc2)[nH]n(C(N)=S)c1=O
AC50 [1]: 5.62 µM [falling, single point] | AC50 [2]: 1.12 µM [falling, partial curve, poor fit]

Reference: PubChem BioAssay AID493014 (National Center for Advancing Translational Sciences (NCATS), 2011)
